Reference: PubChem BioAssay AID2685 (National Center for Advancing Translational Sciences (NCATS), 2010)
Some of the results follow. Shown are side measurements of this screen, not its main read-out; they come without a call. The list favours compounds with an active or inconclusive main result. Words in brackets tell the shape of the fitted curve; partial curves, single points and poor fits give uncertain potencies.

Assay: qHTS Assay for Lipid Storage Modulators in Drosophila S3 Cells;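 for cell number change: cells counted by Cell Tracker Red CMTPX staining in the red channel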
Conditions: BODIPY lipid droplet fluorescence, 18-24 h; for cell number change: measured here: cell count max response, cells fed with added oleic acid
Outline: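 Drosophila S3 cells got compounds at several concentrations plus oleic acid (400 uM solution). Laser-scanning cytometry with 488 nm excitation read lipid droplets at 500-530 nm and cells at 575-640 nm. Percent activity was relative to 20 uM Triacsin C.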

[1] = measured here: lipid fluorescence (Fed channel) AC50, cells fed with added oleic acid
[2] = measured here: cell number channel AC50, cells fed with added oleic acid

| SMILES | cell number change [%] | AC50 [1] | AC50 [2] |
| --- | --- | --- | --- |
| Cc1ccc(N(C)S(=O)(=O)c2cccc(C(=O)OCC(=O)N3CCCC(C)C3)c2)cc1 (stereo not drawn) | 28.3 | 2.06 µM [rising, partial curve, poor fit] | – |
| COc1cc2c(cc1OC)C(C1(O)CCCCC1)NCC2 (stereo not drawn) | 15.9 | 0.13 µM [falling, full curve, poor fit] | – |
| CC(C)c1ccc(-n2c(-c3ccccc3)c[n+]3c2CCc2ccccc2-3)cc1 | -65.4 | – | – |
| CC(=O)N1Cc2cc(N)ccc2Oc2ccccc21 | 33.9 | – | 0.411 µM [rising, full curve] |
| Cc1cc(C(=O)NC(C)C2CC2)c(Cl)cc1Cl (stereo not drawn) | 7.3 | 0.82 µM [rising, full curve] | – |
| Cc1cccc(C)c1NC(=O)C(C)Sc1nnc(C)n1CC1CCCO1 (stereo not drawn) | -21 | 1.16 µM [falling, full curve] | – |
| O=C(CCCCn1c(=O)[nH]c2ccsc2c1=O)NCC1CCCO1 (stereo not drawn) | 2.22 | 0.651 µM [falling, full curve] | 0.82 µM [falling, full curve, poor fit] |
| N#CCc1ccc(NS(=O)(=O)c2ccc(C3CCCCC3)cc2)cc1 | -24.8 | 16.4 µM [falling, single point] | – |
| COc1ccc(NC(=O)c2cc(S(=O)(=O)N3CCCCC3)c[nH]2)c(OC)c1 | 13.5 | – | – |
| CCOc1ccc(NC(=O)NC23CC4CC(CC(C4)C2)C3)cc1 | -10.7 | 5.17 µM [falling, partial curve] | – |
| CC(C)C[C@H](NC(=O)c1nc[nH]c1C(=O)NC1CCN(C(=O)OC(C)(C)C)CC1)C(=O)OC(C)(C)C | -33.4 | 18.4 µM [falling, partial curve] | 16.4 µM [falling, single point] |
| O=C(O)c1cc(-c2ccc(Cl)s2)nc2ccccc12 | 43.4 | 1.84 µM [rising, partial curve, poor fit] | 5.8 µM [rising, partial curve, poor fit] |
| COc1cc(C(C)=O)ccc1COc1ccc(C(=O)OCC(=O)NC2CCS(=O)(=O)C2)cc1OC (stereo not drawn) | 42.5 | 2.06 µM [rising, partial curve, poor fit] | 8.2 µM [rising, partial curve] |
| O=C(O)c1ccc2c(c1)C(=O)N(c1nccs1)C2=O | -37.4 | 16.4 µM [falling, partial curve] | 25.9 µM [falling, single point] |
| Cc1onc(-c2ccccc2)c1C(=O)Nc1cccc(C#N)c1 | 75 | – | 16.4 µM [rising, single point] |
| Cc1ccc(C(=O)CC2(O)C(=O)N(C)c3ccccc32)o1 (stereo not drawn) | -116 | 20.6 µM [falling, partial curve] | 25.9 µM [falling, partial curve] |
| O=C(/C=C/c1ccc([N+](=O)[O-])cc1)NCCN1C(=O)S/C(=C\c2ccc(F)cc2)C1=O | -2.55 | – | – |
| CN(CC(=O)Nc1cccc(F)c1)C(=O)c1ccc2c(c1)CC(c1ccccc1)OC2=O (stereo not drawn) | 8.61 | – | 4.61 µM [falling, single point] |
| OCCNc1c2ccccc2nc2c(F)c(F)c(F)c(F)c12 | -36.4 | 2.59 µM [falling, full curve] | 3.66 µM [falling, full curve] |
| CC(=O)c1ccc(Oc2cc(-c3ccccc3)nc(-c3ccccc3)n2)cc1 | 10.8 | – | – |

An excerpt of these results, as tab-separated lines:
SMILES	cell number change [%]	AC50 [1]	AC50 [2]
Cc1ccc(C(=O)CC2(O)C(=O)N(C)c3ccccc32)o1 (stereo not drawn)	-116	20.6 µM [falling, partial curve]	25.9 µM [falling, partial curve]
O=C(/C=C/c1ccc([N+](=O)[O-])cc1)NCCN1C(=O)S/C(=C\c2ccc(F)cc2)C1=O	-2.55	–	–

Remaining list, next part.

| SMILES | cell number change [%] | AC50 [1] | AC50 [2] |
| --- | --- | --- | --- |
| COc1ccc(C2=NS(=O)(=O)N(C)C(C(=O)Nc3ccc4c(c3)OCO4)=C2)cc1 | 16.2 | 29.1 µM [falling, single point] | – |
| CC(=O)Oc1ccc2c(c1)c(C(C)=O)c(C)n2C | – | – | 2.31 µM [rising, partial curve] |
| COC(=O)Nc1ccc(S(=O)(=O)Nc2cnc3ccccc3n2)cc1 | 13.1 | – | – |
| CCOC(=O)c1c(C)n(C)c2c1cc(OC(C)=O)c1ccccc12 | 17.2 | – | – |
| Cc1onc(-c2c(F)cccc2Cl)c1C(=O)Nc1nnc(C(F)(F)F)s1 | 19.7 | 0.013 µM [rising, full curve, poor fit] | – |
| COc1cc2ccccc2cc1C(=O)N(CCN(C)C)c1nc2c(F)cc(F)cc2s1 | 12.2 | 32.6 µM [rising, single point] | 0.0411 µM [rising, full curve, poor fit] |
| CC(=O)Nc1ccc(C(=O)Nc2cccc(S(=O)(=O)N(C)c3ccccc3)c2)cc1 | -20.8 | 0.411 µM [falling, full curve, poor fit] | – |
| CC(C)(C)[C@@H]1C=C(C(=O)N2CCN(Cc3ccc4c(c3)OCO4)CC2)O[C@H](OCc2ccc(CO)cc2)C1 | -5.65 | 23.1 µM [falling, partial curve, poor fit] | – |
| COC(=O)c1c(NC(=O)COC(=O)c2ccc(O)cc2)sc2c1CCCCC2 | -77.8 | 20.6 µM [falling, partial curve, poor fit] | 23.1 µM [falling, partial curve, poor fit] |
| CC(=O)C1=C(C)NC(SCC(=O)c2ccc(F)cc2)=C(C#N)C1CC(C)C (stereo not drawn) | – | 3.66 µM [rising, full curve] | 0.13 µM [rising, full curve, poor fit] |
| CCN(CC)CCN1C(=O)C(=O)/C(=C(/O)c2ccc(S(=O)(=O)N3CCOCC3)cc2)C1c1ccc(C(C)C)cc1 (stereo not drawn) | 22.7 | – | – |
| O=C(CSc1nnc(NC(=O)c2ccc(F)cc2F)s1)NC1CC1 | 18.4 | 8.2 µM [rising, partial curve] | – |
| Cc1cc(C)n2nc(C(=O)N/N=C/c3ccccc3C)nc2n1 | -22 | 18.4 µM [falling, partial curve] | – |
| CCN(C(=O)C1CCCN(c2ncnc3c2nc2n3CCCCC2)C1)c1cccc(Cl)c1 (stereo not drawn) | -30.6 | – | 0.411 µM [falling, full curve, poor fit] |
| CCCCCCN1C2=NCCN2c2ccccc21 | 15.2 | 6.51 µM [rising, single point] | – |
| Cc1cc(C)n(Cc2n[nH]c(=S)n2Cc2ccccc2)n1 | 149 | – | – |
| Cc1ccc(O)c(NC(=O)c2onc(C)c2Cl)c1 | – | 29.1 µM [falling, single point] | – |
| CC(=O)Nc1cccc(OCC(=O)Nc2ccccc2)c1 | -29.4 | 18.4 µM [rising, single point] | – |
| COc1ccc(-n2c(SC3CCOC3=O)nc3ccccc32)cc1 (stereo not drawn) | 21.6 | 0.146 µM [rising, full curve, poor fit] | – |
| COc1cccc(-n2c(Cn3nc(C(F)F)cc3C(F)F)n[nH]c2=S)c1 | 53.7 | 0.146 µM [rising, full curve, poor fit] | 29.1 µM [rising, single point] |

| SMILES | cell number change [%] | AC50 [1] | AC50 [2] |
| --- | --- | --- | --- |
| CCCCNC(=O)c1ccc2c(c1)S(=O)(=O)c1ccccc1C2=O | 17.8 | 11.6 µM [rising, partial curve] | – |
| COc1ccc(NC(=O)CSc2nnc(-c3ccccc3F)n2C2CC2)cc1S(N)(=O)=O | – | 0.116 µM [rising, full curve, poor fit] | 0.13 µM [rising, full curve] |
| O=C(c1cccc2nccnc12)N1CCCC(Nc2ccc(F)c(F)c2)C1 (stereo not drawn) | 13.5 | 29.1 µM [rising, single point] | – |
| CC(C)c1ccc(NC(=O)N(CCc2nc3ccccc3[nH]2)C2CCCC2)cc1 | 4.55 | – | – |
| Cn1c(-c2ccc(C=O)s2)nc2c3ccccc3c3ccccc3c21 | – | 0.58 µM [rising, single point] | 0.651 µM [rising, single point] |
| CCOC(=O)CSc1nnc([C@@H](NC(=O)OC(C)(C)C)C(C)C)o1 | 3.47 | – | 6.51 µM [rising, single point] |
| CC(C)CCNC(=O)C1CCN(S(=O)(=O)c2ccc3nc4c(c(C(=O)O)c3c2)CCCCC4)CC1 | – | – | 1.84 µM [falling, partial curve] |
| COc1ccc(-n2c(C(C)(C)C)csc2=Nc2c(C)n(C)n(-c3ccccc3)c2=O)cc1 | -4.74 | 0.326 µM [falling, full curve, poor fit] | – |
| CCC(C)NC(=O)c1ccccc1NS(=O)(=O)c1ccc(OC)c(OC)c1 (stereo not drawn) | -1.97 | 32.6 µM [rising, single point] | – |
| Cc1ccc(/C=C/C(=O)c2ccc(N3CCOCC3)cc2)s1 | – | 0.517 µM [rising, partial curve, poor fit] | – |
| Cc1cc2cc(CNC(=O)COc3ccccc3)ccc2n1C | 16.3 | – | – |
| Cc1ccc(S(=O)(=O)N(CC(=O)O)Cc2ccccc2F)cc1 | – | 2.06 µM [falling, partial curve] | – |
| Cc1ccc(NC(=O)c2ccc(OCc3c(C)noc3C)cc2)nc1 | 1.17 | 0.184 µM [rising, full curve, poor fit] | – |
| CCC1(C)Cc2ccccc2-c2nc3n(c(=O)c21)CCCCC3 (stereo not drawn) | – | – | 0.58 µM [falling, single point] |
| O=C(COC(=O)c1ccccc1Nc1cccc(C(F)(F)F)c1)NCc1ccco1 | – | 0.184 µM [falling, full curve, poor fit] | – |
| CC(C)N(Cc1nccn1C)C(=O)c1ccc(OC2CCN(C(=O)C3CC3)CC2)cc1 | -1.56 | 3.66 µM [falling, full curve, poor fit] | – |
| Cc1ccc(N2C(=O)NC(NC(=O)C3CC3)(C(F)(F)F)C2=O)cc1 (stereo not drawn) | – | 3.66 µM [rising, single point] | – |
| Cc1nc(CNC(=O)CC2C(=O)NCCN2Cc2ccoc2)nc2c1CCCC2 (stereo not drawn) | -9.03 | – | 0.00517 µM [falling, full curve, poor fit] |

Structures listed so far that have an aryl methoxy group:

| SMILES | cell number change [%] | AC50 [1] | AC50 [2] |
| --- | --- | --- | --- |
| COc1cc2c(cc1OC)C(C1(O)CCCCC1)NCC2 (stereo not drawn) | 15.9 | 0.13 µM [falling, full curve, poor fit] | – |
| COc1ccc(NC(=O)c2cc(S(=O)(=O)N3CCCCC3)c[nH]2)c(OC)c1 | 13.5 | – | – |
| COc1cc(C(C)=O)ccc1COc1ccc(C(=O)OCC(=O)NC2CCS(=O)(=O)C2)cc1OC (stereo not drawn) | 42.5 | 2.06 µM [rising, partial curve, poor fit] | 8.2 µM [rising, partial curve] |
| COc1ccc(C2=NS(=O)(=O)N(C)C(C(=O)Nc3ccc4c(c3)OCO4)=C2)cc1 | 16.2 | 29.1 µM [falling, single point] | – |
| COc1cc2ccccc2cc1C(=O)N(CCN(C)C)c1nc2c(F)cc(F)cc2s1 | 12.2 | 32.6 µM [rising, single point] | 0.0411 µM [rising, full curve, poor fit] |
| COc1ccc(-n2c(SC3CCOC3=O)nc3ccccc32)cc1 (stereo not drawn) | 21.6 | 0.146 µM [rising, full curve, poor fit] | – |
| COc1cccc(-n2c(Cn3nc(C(F)F)cc3C(F)F)n[nH]c2=S)c1 | 53.7 | 0.146 µM [rising, full curve, poor fit] | 29.1 µM [rising, single point] |
| COc1ccc(NC(=O)CSc2nnc(-c3ccccc3F)n2C2CC2)cc1S(N)(=O)=O | – | 0.116 µM [rising, full curve, poor fit] | 0.13 µM [rising, full curve] |
| COc1ccc(-n2c(C(C)(C)C)csc2=Nc2c(C)n(C)n(-c3ccccc3)c2=O)cc1 | -4.74 | 0.326 µM [falling, full curve, poor fit] | – |
| CCC(C)NC(=O)c1ccccc1NS(=O)(=O)c1ccc(OC)c(OC)c1 (stereo not drawn) | -1.97 | 32.6 µM [rising, single point] | – |
